Measured values as given in PMC5079590.

Amino acid sequences for entries named in this document (tags omitted). A change or cut given only in a name is not applied to a line headed by its entry.
UniProt E5LEV3: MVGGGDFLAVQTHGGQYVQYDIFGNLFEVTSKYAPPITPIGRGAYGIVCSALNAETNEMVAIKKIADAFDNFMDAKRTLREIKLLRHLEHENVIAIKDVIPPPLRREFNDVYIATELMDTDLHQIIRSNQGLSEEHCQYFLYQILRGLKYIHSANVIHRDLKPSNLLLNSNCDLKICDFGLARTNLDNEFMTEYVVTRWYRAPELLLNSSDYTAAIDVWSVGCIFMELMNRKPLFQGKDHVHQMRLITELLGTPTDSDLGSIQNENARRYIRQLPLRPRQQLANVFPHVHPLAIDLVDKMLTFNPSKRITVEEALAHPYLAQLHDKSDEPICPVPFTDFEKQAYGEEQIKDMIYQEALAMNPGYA
UniProt A0A142KXI3: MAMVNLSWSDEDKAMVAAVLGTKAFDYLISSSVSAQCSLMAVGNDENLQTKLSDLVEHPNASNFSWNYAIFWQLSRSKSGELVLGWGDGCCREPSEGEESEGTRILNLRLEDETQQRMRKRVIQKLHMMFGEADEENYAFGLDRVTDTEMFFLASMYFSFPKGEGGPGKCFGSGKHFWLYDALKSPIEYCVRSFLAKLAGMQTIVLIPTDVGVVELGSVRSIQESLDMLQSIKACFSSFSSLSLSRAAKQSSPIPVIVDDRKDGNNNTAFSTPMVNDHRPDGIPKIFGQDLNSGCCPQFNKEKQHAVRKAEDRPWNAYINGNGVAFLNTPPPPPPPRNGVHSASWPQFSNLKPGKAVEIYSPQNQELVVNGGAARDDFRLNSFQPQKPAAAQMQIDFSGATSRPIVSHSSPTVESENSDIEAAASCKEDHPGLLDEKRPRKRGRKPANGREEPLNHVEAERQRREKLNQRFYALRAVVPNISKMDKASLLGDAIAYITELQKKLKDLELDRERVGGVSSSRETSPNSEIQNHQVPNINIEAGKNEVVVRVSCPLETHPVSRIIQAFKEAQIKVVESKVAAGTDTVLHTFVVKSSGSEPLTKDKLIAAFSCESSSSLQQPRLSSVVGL
UniProt A0A142KXI2: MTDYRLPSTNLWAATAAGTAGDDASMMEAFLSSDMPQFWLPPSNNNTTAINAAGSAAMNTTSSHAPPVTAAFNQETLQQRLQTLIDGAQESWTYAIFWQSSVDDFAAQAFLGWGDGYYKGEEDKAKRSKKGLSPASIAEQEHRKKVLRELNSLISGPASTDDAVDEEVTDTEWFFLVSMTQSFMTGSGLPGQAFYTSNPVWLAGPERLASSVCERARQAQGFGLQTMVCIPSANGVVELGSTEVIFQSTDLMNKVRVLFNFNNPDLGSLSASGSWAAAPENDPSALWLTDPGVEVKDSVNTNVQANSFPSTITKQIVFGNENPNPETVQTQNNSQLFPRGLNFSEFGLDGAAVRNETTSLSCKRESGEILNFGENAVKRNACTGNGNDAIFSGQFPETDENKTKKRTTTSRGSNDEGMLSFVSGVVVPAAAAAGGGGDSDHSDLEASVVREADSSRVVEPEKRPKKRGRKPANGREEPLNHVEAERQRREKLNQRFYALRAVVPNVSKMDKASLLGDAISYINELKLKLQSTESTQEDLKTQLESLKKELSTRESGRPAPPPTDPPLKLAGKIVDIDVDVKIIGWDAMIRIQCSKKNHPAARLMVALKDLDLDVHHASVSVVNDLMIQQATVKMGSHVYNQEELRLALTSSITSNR

Assays:
[1] = target: MBP-IbbHLH3 (sweet potato (Ipomoea batatas)); assay: pull-down; MBP pull-down: recombinant GST-IbbHLH4 co-incubated with MBP-IbbHLH3 and amylose resin; washed five times with MBP column buffer; western blot with anti-MBP and anti-GST; both purified
[2] = target: GST-IbWIPK2 (sweet potato (Ipomoea batatas)); assay: pull-down; GST pull-down: GST-fusion proteins co-incubated with MBP-IbbHLH3 and GST resin; washed with PBS; western blot with anti-GST and anti-MBP; both purified
[3] = target: GST-JAZ2a (sweet potato (Ipomoea batatas)); assay: as above
[4] = target: GST-JAZ1 (sweet potato (Ipomoea batatas)); assay: as above
[5] = target: GST-JAZ2b (sweet potato (Ipomoea batatas)); assay: as above
[6] = target: GST-IbWIPK1 (sweet potato (Ipomoea batatas)) (UniProt E5LEV3); assay: as above

| binding [1] | binding [2] | binding [3] | binding [4] | binding [5] | binding [6] | Substance |
| --- | --- | --- | --- | --- | --- | --- |
| binds |  |  |  |  |  | GST-IbbHLH4 (recombinant protein) (from UniProt A0A142KXI3) |
|  | binds | binds | binds | binds | binds | MBP-IbbHLH3 (from UniProt A0A142KXI2) |

No constants are given. Whether binding was seen depends on the method and setting. Binding calls can cover weak binding; strength is not graded here.
